Data: patent publication US9458200B2 (Gottfried Wilhelm Leibniz Universität Hannover, priority 2008, dated 2016)

Assay: general procedure: solution-phase peptide synthesis; EDC/1-hydroxybenzotriazole (fragment couplings); TBTU/1-hydroxybenzotriazole/dii

N^α-Boc-D-AlaThz-Trp-(4-OMe)Trp-Gly-OMe
step yield (coupling step): 78%

N-Boc-D-AlaThz-Trp-(4-OMe)Trp-Gly-D-Ala-DHA-Sar-OEt
step yield (coupling step): 81%

N-Boc-D-SerThz-Trp-(4-OMe)Trp-Gly-D-Ala-DHA-Sar-OEt
step yield (coupling step): 76%

N^α-Boc-D-SerThz-Trp-(4-OMe)Trp-Gly-OMe
step yield (coupling step): 78%

Argyrin F
step yield (late stage modification step): 58% yield

Argyrin A
cyclisation yield (cyclisation step): 57%
